According to the supplement of paper PMC10011410:

Assays:
U-2 OS [1] = test: AUC of Cytotox red (membrane-compromised) object count (AUC (object count x time)); higher = more apoptotic or dead cells
Description: (§1)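 Live-cell Incucyte imaging of U-2 OS cells with Caspase-3/7 Green and Cytotox Red reagents. Compounds were tested mostly at 5, 10 and 20 uM, and cells were imaged every 4 h for up to 60 h. Value is the area under the curve of positive object counts over time, per channel: green = caspase 3/7, red = membrane-compromised, overlap = both.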

U-2 OS [2] = test: AUC of caspase 3/7-positive object count (AUC (object count x time)); higher = more apoptotic or dead cells
Description: as §1

| SMILES | AUC of Cytotox red (U-2 OS [1]; 5 µM) | AUC of Cytotox red (U-2 OS [1]; 10 µM) | AUC of Cytotox red (U-2 OS [1]; 20 µM) | AUC of caspase 3/7-positive object count (U-2 OS [2]; 5 µM) | AUC of caspase 3/7-positive object count (U-2 OS [2]; 10 µM) | AUC of caspase 3/7-positive object count (U-2 OS [2]; 20 µM) | AUC of Cytotox red (U-2 OS [1]; 40 µM) | AUC of Cytotox red (U-2 OS [1]; 80 µM) | AUC of caspase 3/7-positive object count (U-2 OS [2]; 40 µM) | AUC of caspase 3/7-positive object count (U-2 OS [2]; 80 µM) |
| --- | --- | --- | --- | --- | --- | --- | --- | --- | --- | --- |
| Cc1cc(NC(=O)c2cccc(NC(=O)/C=C/CN(C)C)c2)ccc1Nc1nccc(-c2cccnc2)n1 | 43.9 | 83.5 | 425 | 48.5 | 130 | 621 |  |  |  |  |
| Oc1cc(O)cc(/C=C/c2ccc(O)c(O)c2)c1 | 25.3 | 17.6 | 9.05 | 48.6 | 49.8 | 37.2 |  |  |  |  |
| CC(=O)OC1C(c2ccc(=O)oc2)C2(C)CCC3C(CCC4CC(O)CCC43C)C23OC13 (centres undefined) | 37.5 | 65.3 | 62.4 | 65.5 | 74.7 | 86.3 |  |  |  |  |
| c1ccc(Nc2nc(-c3ccccc3)ns2)cc1 | 38.8 | 35.1 | 37.4 | 50.9 | 51.9 | 54.9 |  |  |  |  |
| O=C(NNS(=O)(=O)c1ccccc1F)c1cc(F)cc(-c2ccccn2)c1 | 45.7 | 43.2 | 40.7 | 60 | 55.7 | 69.5 |  |  |  |  |
| Oc1ccc(/C=C\c2cc(O)cc(O)c2)cc1 | 27 | 41.3 | 32.5 | 46.5 | 36.6 | 21.6 |  |  |  |  |
| O=C(CCCCCCC(=O)Nc1ccccc1)NO | 541 | 557 | 575 | 762 | 771 | 861 |  |  |  |  |
| COc1cc(/C=C/c2cc(/C=C/c3ccc(O)c(OC)c3)n(-c3ccc(C(=O)[O-])cc3)n2)ccc1O.[Na+] | 26.8 | 33.5 | 51.1 | 32.1 | 61.7 | 66.9 | 50.7 | 71.3 | 111 | 84.3 |
| CC1=C2C(=CO[C@H](C)[C@H]2C)C(=O)C(C(=O)O)=C1O | 39.3 | 43.2 | 31.9 | 34.5 | 31 | 18.7 |  |  |  |  |
| O=C(O[C@@H]1Cc2c(O)cc(O)cc2O[C@@H]1c1cc(O)c(O)c(O)c1)c1cc(O)c(O)c(O)c1 | -1.11 | -0.0286 | -1.11 | 33.2 | 42.7 | 58.7 | -0.529 | -0.779 | 65.7 | 414 |
| O=C1C(NCCN2CCOCC2)=C(Cl)C(=O)c2ncccc21 | 1060 | 1100 | 810 | 682 | 654 | 714 |  |  |  |  |
| CO[C@H]1C[C@@H]2CC[C@@H](C)[C@@](O)(O2)C(=O)C(=O)N2CCCC[C@H]2C(=O)O[C@H]([C@H](C)C[C@@H]2CC[C@@H](O)[C@H](OC)C2)CC(=O)[C@H](C)/C=C(\C)[C@@H](O)[C@@H](OC)C(=O)[C@H](C)C[C@H](C)/C=C/C=C/C=C/1C | 26.9 | 43.7 | 51.4 | 42.7 | 47 | 52.4 |  |  |  |  |
| Nc1nc(Cl)nc2c1ncn2[C@H]1C[C@H](O)[C@@H](CO)O1 | 78.9 | 96.1 | 102 | 121 | 154 | 170 |  |  |  |  |
| c1ccc(-c2noc(NC3CCCC3)n2)cc1 | 41.8 | 57.9 | 42.3 | 34.3 | 39.9 | 32.9 |  |  |  |  |
| CCOC(=O)C1=C(C)NC(=S)N[C@@H]1c1cccc(O)c1 | 53.5 | 48.5 | 34.4 | 69 | 53.5 | 121 |  |  |  |  |
| C=CC(=O)Nc1ccc(CN2C(=O)N(c3cc(OC)cc(OC)c3)Cc3cnc(Nc4ccc(N5CCN(C)CC5)cc4)nc32)cc1 | 26.8 | 58.8 | 63.9 | 51.9 | 88.4 | 203 |  |  |  |  |
| N[C@@H](Cc1ccc(N(CCCl)CCCl)cc1)C(=O)O | 58 | 70 | 165 | 34.6 | 40.5 | 127 |  |  |  |  |
| O=c1c2ccccc2[se]n1-c1ccccc1 | 41.3 | 532 | 2830 | 68.9 | 342 | 859 |  |  |  |  |
| CC1(C)CCC2=C(O1)c1ccccc1C(=O)C2=O | 59.7 | 643 | 578 | 100 | 610 | 415 |  |  |  |  |
| O=C1c2ccccc2[Se](=O)N1c1ccccc1 (centres undefined) | 261 | 1850 | 1780 | 244 | 1150 | 678 |  |  |  |  |
| C[n+]1ccc(-c2cc[n+](CCCCCCCCCC[P+](c3ccccc3)(c3ccccc3)c3ccccc3)cc2)cc1.[I-].[I-].[I-] | 72.5 | 51.1 | 154 | 47.9 | 40.8 | 117 |  |  |  |  |
| COc1ccc2c(c[n+](C)c3c4cc5c(cc4ccc23)OCO5)c1OC | 29.3 | 101 | 831 | 31.4 | 50.8 | 848 |  |  |  |  |
| Cn1ncnc2c(=O)n(C)c(=O)nc1-2 | 1210 | 1100 | 753 | 746 | 687 | 556 |  |  |  |  |
| Nc1ncn([C@H]2C[C@H](O)[C@@H](CO)O2)c(=O)n1 | 68.4 | 54.2 | 56.7 | 36.4 | 22.9 | 31.1 |  |  |  |  |
| Oc1cccc(O)c1O | 35.3 | 15 | -0.336 | 36.1 | 14.2 | 35.6 |  |  |  |  |
| C=CC(=O)Nc1cc(Nc2nccc(-c3cn(C)c4ccccc34)n2)c(OC)cc1N(C)CCN(C)C | 70.4 | 131 | 1020 | 108 | 207 | 377 |  |  |  |  |
| O=C(/C(C(N1CC2=CC=CC=C2)=O)=C/C3=C(C)C=C(O)C=C3C)N(CC4=CC=CC=C4)C1=O | 23.4 | 18.9 | 133 | 36.5 | 68.3 | 217 | 355 | 1100 | 404 | 1250 |

Ordered by formula weight (smallest number first): some entries from above

| SMILES | AUC of Cytotox red (U-2 OS [1]; 5 µM) | AUC of Cytotox red (U-2 OS [1]; 10 µM) | AUC of Cytotox red (U-2 OS [1]; 20 µM) | AUC of caspase 3/7-positive object count (U-2 OS [2]; 5 µM) | AUC of caspase 3/7-positive object count (U-2 OS [2]; 10 µM) | AUC of caspase 3/7-positive object count (U-2 OS [2]; 20 µM) | AUC of Cytotox red (U-2 OS [1]; 40 µM) | AUC of Cytotox red (U-2 OS [1]; 80 µM) | AUC of caspase 3/7-positive object count (U-2 OS [2]; 40 µM) | AUC of caspase 3/7-positive object count (U-2 OS [2]; 80 µM) |
| --- | --- | --- | --- | --- | --- | --- | --- | --- | --- | --- |
| c1ccc(Nc2nc(-c3ccccc3)ns2)cc1 | 38.8 | 35.1 | 37.4 | 50.9 | 51.9 | 54.9 |  |  |  |  |
| C=CC(=O)Nc1cc(Nc2nccc(-c3cn(C)c4ccccc34)n2)c(OC)cc1N(C)CCN(C)C | 70.4 | 131 | 1020 | 108 | 207 | 377 |  |  |  |  |
| C=CC(=O)Nc1ccc(CN2C(=O)N(c3cc(OC)cc(OC)c3)Cc3cnc(Nc4ccc(N5CCN(C)CC5)cc4)nc32)cc1 | 26.8 | 58.8 | 63.9 | 51.9 | 88.4 | 203 |  |  |  |  |

Values are raw readings; no control value is given beside them.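 Every value is the mean of three technical replicates on separate plates. Each plate had reagent-free control wells to correct for cellular autofluorescence, plus DMSO-treated vehicle control wells. These live-cell readings have no defined active or hit threshold.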
